Source: paper PMC5323128
These are yes or no findings as the source states them, for the method shown. In cells and extracts the contact can be indirect.

Target: DR5, endogenous in Jurkat cells (human (endogenous in Jurkat)), O14763
Experiment: co-IP; Jurkat cells treated with TRAIL^mim/DR5; immunoprecipitation analysis with anti-caspase-8 (clone C20) and anti-DR5 (Chemicon) antibodies; no further details told
Details: remark: other sources report otherwise

binding: no binding
B1: Caspase-8, endogenous in Jurkat cells, Q14790 1-479 (enzyme)
chain: MDFSRNLYDIGEQLDSEDLASLKFLSLDYIPQRKQEPIKDALMLFQRLQEKRMLEESNLSFLKELLFRINRLDLLITYLNTRKEEMERELQTPGRAQISAYRVMLYQISEEVSRSELRSFKFLLQEEISKCKLDDDMNLLDIFIEMEKRVILGEGKLDILKRVCAQINKSLLKIINDYEEFSKERSSSLEGSPDEFSNGEELCGVMTISDSPREQDSESQTLDKVYQMKSKPRGYCLIINNHNFAKAREKVPKLHSIRDRNGTHLDAGALTTTFEELHFEIKPHDDCTVEQIYEILKIYQLMDHSNMDCFICCILSHGDKGIIYGTDGQEAPIYELTSQFTGLKCPSLAGKPKVFFIQACQGDNYQKGIPVETDSEEQPYLEMDLSSPQTRYIPDEADFLLGMATVNNCVSYRNPAEGTWYIQSLCQSLRERCPRGDDILTILTEVNYEVSNKDDKKNMGKQMPQPTFTLRKKLVFPSD
